Here are results for 2 molecules from US20210284690A1 (SWEDISH ORPHAN BIOVITRUM AB PUBL, published 2021).

By UniProt entry, the sequences of proteins in these tests, tags left out. Residues count along the entry.
UniProt P01031, 19-673 limits assumed, chain 1 of 2: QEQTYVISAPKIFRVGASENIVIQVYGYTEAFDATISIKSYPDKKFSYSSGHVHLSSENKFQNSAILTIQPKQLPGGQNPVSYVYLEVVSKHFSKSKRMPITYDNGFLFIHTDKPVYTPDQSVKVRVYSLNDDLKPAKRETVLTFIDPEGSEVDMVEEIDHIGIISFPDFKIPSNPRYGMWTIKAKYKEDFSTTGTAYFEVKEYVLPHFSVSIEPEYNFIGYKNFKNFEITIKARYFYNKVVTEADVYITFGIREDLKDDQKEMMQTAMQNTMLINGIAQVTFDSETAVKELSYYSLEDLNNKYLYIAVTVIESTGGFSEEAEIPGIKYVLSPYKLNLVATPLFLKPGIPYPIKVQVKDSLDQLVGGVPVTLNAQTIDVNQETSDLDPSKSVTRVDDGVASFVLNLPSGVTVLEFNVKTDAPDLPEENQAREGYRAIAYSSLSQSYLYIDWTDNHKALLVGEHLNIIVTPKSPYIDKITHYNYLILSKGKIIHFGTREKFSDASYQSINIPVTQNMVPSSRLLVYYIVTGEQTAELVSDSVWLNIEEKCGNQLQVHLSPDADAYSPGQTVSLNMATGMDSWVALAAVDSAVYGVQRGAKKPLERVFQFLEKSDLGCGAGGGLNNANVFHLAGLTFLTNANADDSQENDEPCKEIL
UniProt P01031, 678-1676 limits assumed, chain 2 of 2: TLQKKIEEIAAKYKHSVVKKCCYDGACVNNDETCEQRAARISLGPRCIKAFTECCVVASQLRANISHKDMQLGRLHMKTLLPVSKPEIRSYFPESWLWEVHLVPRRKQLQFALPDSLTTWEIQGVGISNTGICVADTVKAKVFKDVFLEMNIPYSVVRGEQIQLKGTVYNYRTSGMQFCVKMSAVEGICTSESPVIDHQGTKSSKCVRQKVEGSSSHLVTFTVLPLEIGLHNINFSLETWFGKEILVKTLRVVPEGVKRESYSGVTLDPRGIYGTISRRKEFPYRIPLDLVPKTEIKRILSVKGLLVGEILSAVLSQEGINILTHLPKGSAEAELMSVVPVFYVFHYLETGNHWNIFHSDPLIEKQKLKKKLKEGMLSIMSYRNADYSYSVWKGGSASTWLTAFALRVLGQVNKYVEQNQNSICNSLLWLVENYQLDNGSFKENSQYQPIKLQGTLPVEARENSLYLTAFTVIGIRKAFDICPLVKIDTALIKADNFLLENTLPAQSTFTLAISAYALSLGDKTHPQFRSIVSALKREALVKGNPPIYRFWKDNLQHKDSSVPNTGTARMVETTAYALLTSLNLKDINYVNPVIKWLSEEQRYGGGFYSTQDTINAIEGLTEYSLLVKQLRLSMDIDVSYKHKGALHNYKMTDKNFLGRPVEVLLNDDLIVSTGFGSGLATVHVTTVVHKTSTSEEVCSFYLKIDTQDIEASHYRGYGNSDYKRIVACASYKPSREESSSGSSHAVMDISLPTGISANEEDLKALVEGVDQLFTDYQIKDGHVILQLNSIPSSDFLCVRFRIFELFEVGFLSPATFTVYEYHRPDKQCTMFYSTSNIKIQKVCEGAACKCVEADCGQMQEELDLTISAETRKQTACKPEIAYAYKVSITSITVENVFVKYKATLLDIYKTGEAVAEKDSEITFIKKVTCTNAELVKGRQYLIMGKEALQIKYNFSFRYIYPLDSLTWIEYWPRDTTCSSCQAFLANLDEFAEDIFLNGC

Broadly, the Kd is the constant that tells how readily two partners part at equilibrium. Read a high Kd as lower affinity.

The target of assay [1] is T1, Human C5 (A403, Quidel Corporation) (human, UniProt P01031 19-673; P01031 678-1676, limits assumed). The assay is described as follows: cell-based or functional assay.
Assay [2] has as its target T1, Human C5 (A403, Quidel Corporation). Briefly: SPR (Biacore T200), hC5 amine-coupled to CM5 chip, single cycle kinetics, Langmuir 1:1 fit.

B1: PSI0493, Z06175(bb1)-GS-[half-life extending polypeptide moiety] (designed binder)
chain: AEAKYAKEVLEAWDEIDRLPNLTIEQWLAFINKLDDDPSQSSELLSEAKKLSESQAPKGSPVPPTGDSEATPVPPTGDSETAPVPPTGDSGAPPVPPTGDSGAPPVPPTGDSGAPPVPPTGDSGAPPVPPTGDSGAPPVPPTGDSGAPPVPPTGDSGAPPVPPTGDSGAPPVPPTGDAGPPPVPPTGDSGAPPVPPTGDSGAPPVTPTGDSETAPVPPTGDSGAPPVPPTGDSEAAPVPPTDDSKEAGS
notes: expressed in E. coli
As for B1, the “IC 50 (nM); inhibition of hemolysis of antibody sensitized sheep erythrocytes” value in assay [1] was 0.5 nM. The affinity in assay [2], expressed as Kd, was 2.4 nM.

B2: PSI0489, Z06175-Cys-PEG(L30kDa) (designed binder)
chain: AEAKYAKEVLEAWDEIDRLPNLTIEQWLAFINKLDDDPSQSSELLSEAKKLSESQAPKC
modifications: 30 kDa linear PEG conjugated at a Cys in the C-terminus
notes: also called PS10489; P510489: PEG30K
Consider B2, for which the “IC 50 (nM); inhibition of hemolysis of antibody sensitized sheep erythrocytes” value in assay [1] stood at 1.5 nM. For the same molecule, the affinity in assay [2], expressed as Kd, was 1.4 nM.
